Laboratory results taken from PubChem BioAssay AID493014 (National Center for Advancing Translational Sciences (NCATS), 2011).
Among all 340,000 compounds or so, about 170 (0.05%) were called active. Inconclusive means that the source gave no clear call. Such entries were picked first, then a sample of the others. The call rests on the fitted dose curve; in most records, active means well fitted inhibition curve with a large enough effect in the signal ratio, with a control signal flat (not every such curve was filed as active); inconclusive means small, poorly fitted or top-dose-only effect, or effect the other way, or a change in a side signal; inactive means flat fitted curve, though single readings scatter; the % refers to the signal ratio. A potency beside an inconclusive call is a rough fit, not a confirmed value.

experiment: qHTS Assay to Find Inhibitors of Chronic Active B-Cell Receptor Signaling; settings: ABC-DLBCL IkBa-CBG/CBR reporter, luminescence ratio (green luciferase fused to IkBa over red control in TMD8 lymphoma cells), 4 h; activity change, negative = inhibition: at 46.1 µM (top of the series);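 on activity change, negative = inhibition: plate controls were basal doxycycline-induced cells for no effect and cells given 10 µM MG132 for full effect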
How it was run: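 TMD8 human ABC-DLBCL cells with doxycycline-inducible IκBα–green luciferase fusion and unfused red luciferase, in 0.5% FBS medium; compounds up to 46 uM, 4 h at 37C. Green/red luminescence ratio, filter-overlap corrected, fitted to concentration-response curves.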
Potency means the concentration at half of the fitted maximal effect.

Row | Compound | Potency | activity change, negative = inhibition
1 | O=C(NCc1ccccc1)C(=O)Nc1cccc(C(=O)O)c1 | inconclusive: 0.708 µM [rising, partial curve, poor fit] | –
2 | O=C(NC1CCCCC1)c1ccc2c(c1)N(Cc1cccc(F)c1)C(=O)c1ccccc1S2 | – | inactive
3 | Fc1ccc(CN2CCCN(C(=S)Nc3ccc(F)cc3)CC2)cc1 | inconclusive: 17.8 µM [falling, partial curve, poor fit] | –
4 | O=C(CCC(=O)Nc1cccc([N+](=O)[O-])c1)NCc1ccccc1 | – | inconclusive: 3.95%
5 | CCNc1oc(COc2cccc(C)c2)nc1C#N | – | inactive
6 | O=C(CCN1CCCCC1)Nc1ccc(Br)cc1 | – | inactive
7 | COc1cc2cc(/C=C/C(=O)c3ccco3)c(Cl)nc2cc1OC | – | inconclusive: -2.04%
8 | O=C(O)CC(NNC(=O)c1ccccc1)C(=O)Nc1ccc([N+](=O)[O-])cc1 (centres undefined) | inconclusive: 22.4 µM [falling, single point] | –
9 | COCC(C)n1c(-c2ccc3c(c2)NC(=O)CO3)csc1=Nc1ccc(OC(F)F)cc1 (centres undefined) | inconclusive: 29.1 µM [falling, single point] | –
10 | COC(=O)c1ccccc1NC(=S)NC(=O)COc1ccccc1 | – | inactive
11 | Cc1cccc(N(C)S(=O)(=O)c2ccc(-c3cc(C)no3)s2)c1 | inconclusive: 8.91 µM [falling, partial curve] | –
12 | COc1ccc(CCN(C(=O)c2snc(C(N)=O)c2N)C(C(=O)NCC2CCCO2)c2ccc(F)cc2)cc1OC (centres undefined) | – | inactive
13 | COc1cc(OC)cc(C(=O)NCC(=O)N2CCC(C)CC2)c1 | – | inconclusive: -25%
14 | Nc1nn(-c2ccccc2)c(N)c1N=Nc1ccccc1 | inconclusive: 18.4 µM [falling, partial curve] | –
15 | Cc1ccc(S(=O)(=O)N2CCOCC2)cc1NC(=O)CN1CCC(Cc2ccccc2)CC1 | – | inconclusive: -8.94%
16 | COc1ccc(-c2nc3c4ccccc4n(CC(=O)Nc4ccc(C(C)C)cc4)c(=O)n3n2)cc1 | – | inconclusive: 3.53%
17 | O=C(Nc1nccs1)c1ccc(-c2ccc(F)cc2)o1 | – | inconclusive: -7.03%
18 | NC(=O)[C@H]1CC2(CC(c3cccc(NC(=O)CC(c4ccccc4)c4ccccc4)c3)=NO2)CN1C(=O)C(c1ccccc1)c1ccccc1 (some centres undefined) | – | inactive
19 | CC1(c2ccccc2)NC(=O)N(CC(=O)NCCC2=CCCCC2)C1=O (centres undefined) | – | inactive
20 | O=C(c1cccc(-c2nnc(-c3ccccc3)o2)c1)N1CCCCC1 | – | inconclusive: 3.05%
21 | CCn1nnc(NC(=O)c2cc3ccccc3o2)n1 | – | inconclusive: -13.8%
22 | COC(=O)C1=C(C)NC(C)=C(C(=O)OC)C1c1ccc(-c2cccc([N+](=O)[O-])c2)o1 | – | inconclusive: -0.311%
23 | Cc1nn(-c2nc3ccccc3[nH]2)c(=O)c2ccccc12 | inconclusive: 3.98 µM [rising, partial curve, poor fit] | –
24 | Cc1ccccc1OCC(O)Cn1c(=N)n(Cc2ccccc2)c2ccccc21 (centres undefined) | inconclusive: 17.8 µM [falling, partial curve, poor fit] | –
25 | CC1Oc2ccccc2C(=O)N(CC(=O)c2ccc3c(c2)OCCO3)C1=O (centres undefined) | inconclusive: 17.8 µM [falling, partial curve, poor fit] | –

Taken from above:
activity change, negative = inhibition, `CC1(c2ccccc2)NC(=O)N(CC(=O)NCCC2=CCCCC2)C1=O` (centres undefined) is entered as inactive
Potency, `Cc1cccc(N(C)S(=O)(=O)c2ccc(-c3cc(C)no3)s2)c1` is entered as inconclusive: 8.91 µM [falling, partial curve]

Remaining list, next part.

Row | Compound | Potency | activity change, negative = inhibition
26 | CC(=O)Nc1cccc(NC(=O)CSc2ncc(-c3ccc(Cl)cc3)n2Cc2ccco2)c1 | – | inconclusive: 1.58%
27 | O=C(CN1C(=O)CCC1=O)Nc1cccc(NC(=O)CN2C(=O)CCC2=O)c1 | – | inactive
28 | COc1cccc(C(=O)Nc2nc3ccccc3[nH]2)c1 | inconclusive: 4.61 µM [falling, partial curve] | –
29 | CC(=O)Nc1ccc(S(=O)(=O)NCc2ccc3[nH]c(C)cc3c2)cc1 | inconclusive: 20.6 µM [falling, single point] | –
30 | Nc1nc(-c2ccc(Cl)cc2)nn1C(=O)c1ccco1 | inconclusive: 12.6 µM [falling, partial curve, poor fit] | –
31 | O=C(CCc1ccccc1)Nc1nc2c(F)cc(F)cc2s1 | – | inconclusive: -20.3%
32 | Cc1ccc(OCc2ccc(Br)cc2)c([N+](=O)[O-])n1 | – | inconclusive: 0.12%
33 | N#Cc1c(NC(=O)CCC(=O)O)sc2c1CCCC2 | inconclusive: 20.6 µM [falling, partial curve, poor fit] | –
34 | O=C(C[C@@H]1C/C=C\CCC(=O)OC[C@@H]2CCCN2C1=O)N[C@@H](CO)Cc1ccccc1 | – | inactive
35 | O=C(Cc1ccc(Cl)cc1)Nc1ncc([N+](=O)[O-])s1 | inconclusive: 35.5 µM [rising, single point] | –
36 | OC(COCc1cccs1)CN1CCN(c2ccccn2)CC1 (centres undefined) | – | inactive
37 | Cc1ccc(COc2cccc(/C=N/NC(=O)c3nnn(-c4nonc4N)c3C)c2)cc1 | – | inactive
38 | CC(=O)Nc1nnc(COc2ccccc2)s1 | inconclusive: 22.4 µM [falling, single point] | –
39 | COc1ccccc1NC(=O)CN1CCN(CC(=O)Nc2ccccc2Cl)CC1 | – | inconclusive: -7.36%
40 | COc1cc(O)c(C(CCN2CCCC2)c2cc(OC)c(OC)c(OC)c2)c(OC)c1 (centres undefined) | – | inconclusive: -1.21%
41 | COCCn1c(C)cc(C(=O)COC(=O)c2ccc(-n3nc(C)cc3C)cc2)c1C | – | inconclusive: 12.1%
42 | COc1cc2c(cc1OC)C(C)N(C(=O)c1c(C)noc1C)CC2 (centres undefined) | inconclusive: 35.5 µM [falling, single point] | –
43 | C=CCN(c1ccccc1)S(=O)(=O)c1cccc(C(=O)NCC(c2ccccc2OC)N2CCCC2)c1 (centres undefined) | – | inconclusive: 0.771%
44 | COc1cc(C(=O)OCC(=O)N2CCN(C(C)=O)CC2)ccc1OCC(C)C | – | inconclusive: 0.438%
45 | COCCN(C(=O)Nc1ccccc1)c1ccccc1 | – | inconclusive: 11.6%
46 | Cc1cccnc1NC(=O)c1ccc([N+](=O)[O-])o1 | – | inactive
47 | Cc1[nH]n(C2=NCCS2)c(=O)c1N=Nc1ccccc1 | – | inconclusive: -8.18%
48 | O=C(c1ccc([N+](=O)[O-])cc1)n1nc(-c2ccccc2)nc1NCc1ccc(F)cc1 | – | inconclusive: 4.86%
49 | Cc1ccc(NS(=O)(=O)c2cc3c4c(cccc4c2)C(=O)NC3=O)cc1C | – | inconclusive: -5.07%
